Experimental data as given in article PMC9814838, “The orphan nuclear receptor Nurr1 is responsive to non-steroidal anti-inflammatory drugs” (Communications Chemistry, 2020).
No constants are given. Whether binding was seen depends on the method and setting.

Biological target: biotinylated recombinant Nurr1 LBD (Tb-labeled through Tb-cryptate streptavidin) (human) (UniProt P43354)
Assay: condition: only with 100 µM MFA (meclofenamic acid); AlphaScreen or HTRF; Nurr1 homodimerization as a2, in presence of 100 µM meclofenamic acid (MFA), 1% DMSO; both purified

- binding: no binding
B1: GFP-Nurr1 LBD (domain or fragment, human, UniProt P43354-1 364-598, looked up)
chain: LISALVRAHVDSNPAMTSLDYSRFQANPDYQMSGDDTQHIQQFYDLLTGSMEIIRGWAEKIPGFADLPKADQDLLFESAFLELFVLRLAYRSNPVEGKLIFCNGVVLHRLQCVRGFGEWIDSIVEFSSNLQNMNIDISAFSCIAALAMVTERHGLKEPKRVEELQNKIVNCLKDHVTFNNGGLNRPNYLSKLLGKLPELRTLCTQGLQRIFYLKLEDLVPPPAIIDKLFLDTLPF
notes: Superfolder GFP is the FRET acceptor; a BamHI site lies between GFP and the LBD; also called GFP-labeled Nurr1 LBD; source: E. coli T7 express with pGro7, purified (IMAC, TEV cleavage, reverse IMAC, SEC); not shown: His10, N-terminal, cleaved; superfolder GFP, N-terminal, kept
